Test results: publication PMC8565353

By UniProt entry, the sequences of proteins in these tests, tags left out.
UniProt Q6P6C2: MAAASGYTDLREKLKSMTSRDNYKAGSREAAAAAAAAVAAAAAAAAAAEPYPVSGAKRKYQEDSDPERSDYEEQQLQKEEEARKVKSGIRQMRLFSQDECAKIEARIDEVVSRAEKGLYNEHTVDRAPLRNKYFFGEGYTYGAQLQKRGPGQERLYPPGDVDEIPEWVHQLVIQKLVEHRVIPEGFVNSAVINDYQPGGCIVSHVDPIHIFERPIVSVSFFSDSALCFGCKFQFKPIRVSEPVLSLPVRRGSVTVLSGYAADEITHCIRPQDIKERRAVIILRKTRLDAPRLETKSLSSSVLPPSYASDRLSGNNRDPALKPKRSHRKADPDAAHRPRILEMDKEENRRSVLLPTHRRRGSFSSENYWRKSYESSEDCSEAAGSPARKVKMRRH

Key:
[1] = molecular target: T1, METTL16, C-terminal BirA* fusion (human) (UniProt Q86W50); assay: proximity labelling; BioID: BirA*-fused bait induced with 200 ng/ml dox in stable 293T cells, 50 μM biotin for 24 h, streptavidin bead purification of biotinylated proteins, LC-MS/MS; hits filtered by Limma (>4-fold, adjusted P < 0.01) and SAINT (score >0.74) against BirA* and NLS-BirA* controls
T1 sequence: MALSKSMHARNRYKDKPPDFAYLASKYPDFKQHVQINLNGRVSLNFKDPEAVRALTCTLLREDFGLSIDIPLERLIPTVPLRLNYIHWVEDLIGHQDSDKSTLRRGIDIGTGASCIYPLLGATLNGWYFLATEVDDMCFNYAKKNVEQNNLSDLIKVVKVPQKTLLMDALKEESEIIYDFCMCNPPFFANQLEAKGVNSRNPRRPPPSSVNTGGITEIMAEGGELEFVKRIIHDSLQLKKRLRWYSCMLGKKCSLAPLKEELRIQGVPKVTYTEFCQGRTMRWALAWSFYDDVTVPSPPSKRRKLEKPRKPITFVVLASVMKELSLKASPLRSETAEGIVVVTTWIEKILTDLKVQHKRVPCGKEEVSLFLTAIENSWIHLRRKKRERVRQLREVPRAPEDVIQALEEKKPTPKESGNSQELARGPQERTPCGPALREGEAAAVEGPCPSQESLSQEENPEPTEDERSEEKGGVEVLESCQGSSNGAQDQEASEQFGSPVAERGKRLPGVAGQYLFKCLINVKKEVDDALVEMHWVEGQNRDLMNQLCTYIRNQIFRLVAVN

[2] = molecular target: FTO, N-terminal BirA* fusion (human) (UniProt Q9C0B1); assay: as above
[3] = molecular target: ALKBH5-Strep II-HA (human) (UniProt Q6P6C2); assay: affinity purification with mass spectrometry; Strep II-tagged bait captured on StrepTactinXT beads from 293T total lysate, 4 h at 4°C, with RNase inhibitor (-RNase A) or with 2 μg/ml RNase A; washes with 350 mM KCl; LC-MS/MS; against Strep II-eGFP control
[4] = molecular target: ALKBH5, BirA* fusion (human) (UniProt Q6P6C2); assay: proximity labelling; BioID: BirA*-fused bait induced with 200 ng/ml dox in stable 293T cells, 50 μM biotin for 24 h, streptavidin bead purification of biotinylated proteins, LC-MS/MS; hits filtered by Limma (>4-fold, adjusted P < 0.01) and SAINT (score >0.74) against BirA* and NLS-BirA* controls

B1: RRP1 (protein, UniProt P56182 1-461)
chain: MVSRVQLPPEIQLAQRLAGNEQVTRDRAVRKLRKYIVARTQRAAGGFTHDELLKVWKGLFYCMWMQDKPLLQEELGRTISQLVHAFQTTEAQHLFLQAFWQTMNREWTGIDRLRLDKFYMLMRMVLNESLKVLKMQGWEERQIEELLELLMTEILHPSSQAPNGVKSHFIEIFLEELTKVGAEELTADQNLKFIDPFCRIAARTKDSLVLNNITRGIFETIVEQAPLAIEDLLNELDTQDEEVASDSDESSEGGERGDALSQKRSEKPPAGSICRAEPEAGEEQAGDDRDSGGPVLQFDYEAVANRLFEMASRQSTPSQNRKRLYKVIRKLQDLAGGIFPEDEIPEKACRRLLEGRRQKKTKKQKRLLRLQQERGKGEKEPPSPGMERKRSRRRGVGADPEARAEAGEQPGTAERALLRDQPRGRGQRGARQRRRTPRPLTSARAKAANVQEPEKKKKRRE
binding [1]: binds

B3: SRSF7 (protein, UniProt Q16629 1-238)
chain: MSRYGRYGGETKVYVGNLGTGAGKGELERAFSYYGPLRTVWIARNPPGFAFVEFEDPRDAEDAVRGLDGKVICGSRVRVELSTGMPRRSRFDRPPARRPFDPNDRCYECGEKGHYAYDCHRYSRRRRSRSRSRSHSRSRGRRYSRSRSRSRGRRSRSASPRRSRSISLRRSRSASLRRSRSGSIKGSRYFQSPSRSRSRSRSISRPRSSRSKSRSPSPKRSRSPSGSPRRSASPERMD
binding [3]: binds
binding [4]: binds

B4: DDX49 (protein, UniProt Q9Y6V7 1-483)
chain: MAGFAELGLSSWLVEQCRQLGLKQPTPVQLGCIPAILEGRDCLGCAKTGSGKTAAFVLPILQKLSEDPYGIFCLVLTPTRELAYQIAEQFRVLGKPLGLKDCIIVGGMDMVAQALELSRKPHVVIATPGRLADHLRSSNTFSIKKIRFLVMDEADRLLEQGCTDFTVDLEAILAAVPARRQTLLFSATLTDTLRELQGLATNQPFFWEAQAPVSTVEQLDQRYLLVPEKVKDAYLVHLIQRFQDEHEDWSIIIFTNTCKTCQILCMMLRKFSFPTVALHSMMKQKERFAALAKFKSSIYRILIATDVASRGLDIPTVQVVINHNTPGLPKIYIHRVGRTARAGRQGQAITLVTQYDIHLVHAIEEQIKKKLEEFSVEEAEVLQILTQVNVVRRECEIKLEAAHFDEKKEINKRKQLILEGKDPDLEAKRKAELAKIKQKNRRFKEKVEETLKRQKAGRAGHKGRPPRTPSGSHSGPVPSQGLV
binding [1]: binds

B6: LAS1L (protein, UniProt Q9Y4W2 1-734)
chain: MSWESGAGPGLGSQGMDLVWSAWYGKCVKGKGSLPLSAHGIVVAWLSRAEWDQVTVYLFCDDHKLQRYALNRITVWRSRSGNELPLAVASTADLIRCKLLDVTGGLGTDELRLLYGMALVRFVNLISERKTKFAKVPLKCLAQEVNIPDWIVDLRHELTHKKMPHINDCRRGCYFVLDWLQKTYWCRQLENSLRETWELEEFREGIEEEDQEEDKNIVVDDITEQKPEPQDDGKSTESDVKADGDSKGSEEVDSHCKKALSHKELYERARELLVSYEEEQFTVLEKFRYLPKAIKAWNNPSPRVECVLAELKGVTCENREAVLDAFLDDGFLVPTFEQLAALQIEYEDGQTEVQRGEGTDPKSHKNVDLNDVLVPKPFSQFWQPLLRGLHSQNFTQALLERMLSELPALGISGIRPTYILRWTVELIVANTKTGRNARRFSAGQWEARRGWRLFNCSASLDWPRMVESCLGSPCWASPQLLRIIFKAMGQGLPDEEQEKLLRICSIYTQSGENSLVQEGSEASPIGKSPYTLDSLYWSVKPASSSFGSEAKAQQQEEQGSVNDVKEEEKEEKEVLPDQVEEEEENDDQEEEEEDEDDEDDEEEDRMEVGPFSTGQESPTAENARLLAQKRGALQGSAWQVSSEDVRWDTFPLGRMPGQTEDPAELMLENYDTMYLLDQPVLEQRLEPSTCKTDTLGLSCGVGSGNCSNSSSSNFEGLLWSQGQLHGLKTGLQLF
binding [3]: binds
binding [4]: binds

More lines, now with the values ahead:

binding [1]: binds
binding [2]: binds
B2: TRUB1 (enzyme, UniProt Q8WWH5 1-349)
chain: MAASEAAVVSSPSLKTDTSPVLETAGTVAAMAATPSARAAAAVVAAAARTGSEARVSKAALATKLLSLSGVFAVHKPKGPTSAELLNRLKEKLLAEAGMPSPEWTKRKKQTLKIGHGGTLDSAARGVLVVGIGSGTKMLTSMLSGSKRYTAIGELGKATDTLDSTGRVTEEKPYDKITQEDIEGILQKFTGNIMQVPPLYSALKKDGQRLSTLMKRGEVVEAKPARPVTVYSISLQKFQPPFFTLDVECGGGFYIRSLVSDIGKELSSCANVLELTRTKQGPFTLEEHALPEDKWTIDDIAQSLEHCSSLFPAELALKKSKPESNEQVLSCEYITLNEPKREDDVIKTC

binding [3]: binds
binding [4]: binds
B5: TEX10 (protein, UniProt Q9NXF1 1-929)
chain: MTKKRKRQHDFQKVKLKVGKKKPKLQNATPTNFKTKTIHLPEQLKEDGTLPTNNRKLNIKDLLSQMHHYNAGVKQSALLGLKDLLSQYPFIIDAHLSNILSEVTAVFTDKDANVRLAAVQLLQFLAPKIRAEQISPFFPLVSAHLSSAMTHITEGIQEDSLKVLDILLEQYPALITGRSSILLKNFVELISHQQLSKGLINRDRSQSWILSVNPNRRLTSQQWRLKVLVRLSKFLQALADGSSRLRESEGLQEQKENPHATSNSIFINWKEHANDQQHIQVYENGGSQPNVSSQFRLRYLVGGLSGVDEGLSSTENLKGFIEIIIPLLIECWVEAVPPQLATPVGNGIEREPLQVMQQVLNIISLLWKLSKQQDETHKLESWLRKNYLIDFKHHFMSRFPYVLKEITKHKRKEPNKSIKHCTVLSNNIDHLLLNLTLSDIMVSLANASTLQKDCSWIEMIRKFVTETLEDGSRLNSKQLNRLLGVSWRLMQIQPNREDTETLIKAVYTLYQQRGLILPVRTLLLKFFSKIYQTEELRSCRFRYRSKVLSRWLAGLPLQLAHLGSRNPELSTQLIDIIHTAAARANKELLKSLQATALRIYDPQEGAVVVLPADSQQRLVQLVYFLPSLPADLLSRLSRCCIMGRLSSSLAAMLIGILHMRSSFSGWKYSAKDWLMSDVDYFSFLFSTLTGFSKEELTWLQSLRGVPHVIQTQLSPVLLYLTDLDQFLHHWDVTEAVFHSLLVIPARSQNFDILQSAISKHLVGLTVIPDSTAGCVFGVICKLLDHTCVVSETLLPFLASCCYSLLYFLLTIEKGEAEHLRKRDKLWGVCVSILALLPRVLRLMLQSLRVNRVGPEELPVVGQLLRLLLQHAPLRTHMLTNAILVQQIIKNITTLKSGSVQEQWLTDLHYCFNVYITGHPQGPSALATVY

binding [3]: binds
binding [4]: binds
B7: ZC3H14 (protein, UniProt Q6PJT7 1-736)
chain: MEIGTEISRKIRSAIKGKLQELGAYVDEELPDYIMVMVANKKSQDQMTEDLSLFLGNNTIRFTVWLHGVLDKLRSVTTEPSSLKSSDTNIFDSNVPSNKSNFSRGDERRHEAAVPPLAIPSARPEKRDSRVSTSSQESKTTNVRQTYDDGAATRLMSTVKPLREPAPSEDVIDIKPEPDDLIDEDLNFVQENPLSQKKPTVTLTYGSSRPSIEIYRPPASRNADSGVHLNRLQFQQQQNSIHAAKQLDMQSSWVYETGRLCEPEVLNSLEETYSPFFRNNSEKMSMEDENFRKRKLPVVSSVVKVKKFNHDGEEEEEDDDYGSRTGSISSSVSVPAKPERRPSLPPSKQANKNLILKAISEAQESVTKTTNYSTVPQKQTLPVAPRTRTSQEELLAEVVQGQSRTPRISPPIKEEETKGDSVEKNQGTQQRQLLSRLQIDPVMAETLQMSQDYYDMESMVHADTRSFILKKPKLSEEVVVAPNQESGMKTADSLRVLSGHLMQTRDLVQPDKPASPKFIVTLDGVPSPPGYMSDQEEDMCFEGMKPVNQTAASNKGLRGLLHPQQLHLLSRQLEDPNGSFSNAEMSELSVAQKPEKLLERCKYWPACKNGDECAYHHPISPCKAFPNCKFAEKCLFVHPNCKYDAKCTKPDCPFTHVSRRIPVLSPKPAVAPPAPPSSSQLCRYFPACKKMECPFYHPKHCRFNTQCTRPDCTFYHPTINVPPRHALKWIRPQTSE

Results are given in words; binding and its absence hold for the method and conditions named. Binding seen in cells or lysates may run through a third protein. These calls come from enrichment with a bait or labelling near it, and not all partners need be listed. For part of these data: Tags and fused reporters may be left off the sequences shown. One block for each binder: values may come before it.
